Data from patent publication US9102619B2, “Derivatives of 1-phenyl-2-pyridinyl alkyl alcohols as phosphodiesterase inhibitors” (Chiesi Farmaceutici S.p.A., priority 2007, dated 2015).
For at least one compound, name, drawing or mass did not settle the structure.

How the values were obtained:
PDE4 enzyme = assay: In vitro PDE4 inhibitory activity in the cell free assay (cAMP disappearance, U937 cell supernatant); type: biochemical, human; conditions: 1.6 μM cAMP, 30° C. 30 minutes
Protocol: The U937 human monocytic cell line was used as source of PDE4 enzyme. Cells were cultured, harvested and supernatant fraction prepared essentially as described in Torphy, T. J. et al., J. Pharmacol. Exp. Ther., 1992; 263:1195-1205. PDE4 activity was determined in cells supernatants by assaying cAMP disappearance from the incubation mixtures. 50 μl of cell supernatant were incubated at 30° C. for 30 minutes in a final volume of 200 μl in the presence of 1.6 μM cAMP with or without the test compound (50 μl).
The concentration of the test compounds ranged between 10^−12 M and 10^−6 M. Reactions were stopped by heat inactivation (2.5 minutes at 100° C.) and residual cAMP was measured using an electrochemiluminescence (ECL)-based immunoassay.
Percentage of inhibition of PDE4 activity was calculated, assuming cAMP disappearance in the absence of inhibitors as 100% and cAMP disappearance in heat inactivated samples as 0%.

LPDE4 [1] = assay: Inhibition of low affinity LPDE4 (cAMP disappearance); type: biochemical; conditions: ratio of IC50 values
Text: (§1) Advantageously the compounds of the invention are characterized by selectivity toward LPDE4 higher than that toward HPDE4 as obtained by the determination of their IC50. In the case of LPDE4, the IC50 is the molar concentration of the test compound producing 50% inhibition of cAMP disappearance, assessed as described in Cortijo, J. et al., Br. J. Pharmacol., 1993, 108: 562-568, while in the case of HPDE4, the IC50 is the molar concentration of the test compound producing 50% inhibition of the binding of [H^3] rolipram, assessed as described in Duplantier, A. J. et al., J. Med. Chem., 1996; 39: 120-125. Preferably the HPDE4/LPDE4 IC50 ratio for the compounds of the invention is higher than 5, preferably higher than 10, more preferably higher than 20 and even more preferably higher than 100.
(§2) The affinity toward LPDE4 and HPDE4 was assessed as previously described respectively in Cortijo J. et al., Br. J. Pharmacol., 1993, 108: 562-568 and Duplantier A. J. et al., J. Med. Chem., 1996; 39: 120-125. In the case of LPDE4, the IC50 is the molar concentration of the test compound producing 50% inhibition of cAMP disappearance, while in the case of HPDE4, the IC50 is the molar concentration of the test compound producing 50% inhibition of the binding of [H^3] rolipram.

LPDE4 [2] = test system: T1, LPDE4; assay: as above; type: biochemical; conditions: 50% inhibition of cAMP disappearance
T1 construct: LPDE4 IC50
Text: as §1, §2

HPDE4 = assay: Competition for high affinity HPDE4 ([H^3] rolipram binding); conditions: 50% inhibition of the binding of [H^3] rolipram
Text: as §1, §2

Row | SMILES | IC50 (PDE4 enzyme) [nM] | HPDE4/LPDE4 (LPDE4 [1]) | IC50 (LPDE4 [2]) [nM] | IC50 (HPDE4) [nM]
1 | COc1ccc(C(Cc2c(Cl)c[n+]([O-])cc2Cl)OC(=O)C(C)c2ccc(CC(C)C)cc2)cc1OC [Compound 13, (S)-2-(4-isobutyl-phenyl)-propionic acid 2-(3,5-dichloro-1-oxy-pyridin-4-yl)-1-(3,4-dimethoxy-phenyl)-ethyl ester] | 1.5 | – | – | –
2 | O=C(OC(Cc1c(Cl)c[n+]([O-])cc1Cl)c1ccc(OC(F)F)c(OCC2CC2)c1)c1ccc(OC(F)F)c(OCC2CC2)c1 (centres unmarked) [Compound 14, 3-cyclopropylmethoxy-4-difluoromethoxy-benzoic acid 1-(3-cyclopropylmethoxy-4-difluoromethoxy-phenyl)-2-(3,5-dichloro-1-oxy-pyridin-4-yl)-ethyl ester] | 0.2 | 158 | 0.0881 | 13.9
